From PubChem BioAssay AID1508600 (Functional Genomics Laboratory (NCATS/FGL), 2020)
Screen size: about 53,000 sequences; about 3,700 (7%) were called active.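 The calls were made as follows: active = gene knockdowns whose robust z-score for IL-1 alpha signal is at least 2 or at most -2, so actives lie on both sides; inactive = the rest.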 This is one part of the list.

Assay: Components of the Cytosolic LPS Sensing Pathway: Gene Identification via Genome-wide siRNA Screen;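 also: robust z of the log signal after scaling to non-targeting control siRNA wells of the plate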
Conditions: RAW264.7 macrophages, IL-1a HTRF, actives lie on both sides, screened at 100 nM (by protocol), cells primed 5 h with Pam3CSK4 first
How it was run: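 Mouse macrophage line RAW264.7 is transfected with siRNA (100 nM final), grown 48h, primed with TLR ligand Pam3CSK4 5 h and given intracellular LipidA 24 h. IL-1a in supernatant is read by HTRF and viability by luminescence.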
For GGACUUACUGACAAGAAACTT against Pcdhgb8, the z-score was inactive: -0.52. In the case of GGGCCAAUGAUGGACUUCCTT against Syp, the z-score is reported as inactive: 0.33. With GGUGAAGACUUCCAGAAGGTT against Reg3a the z-score was inactive: -0.186. For GCCAGUGGUAUCUGGAAGUTT against Brca2, the z-score was inactive: 0.0865. In the case of GGUGCUGAACAUCUAUGGGTT against Myo1d, the z-score is reported as inactive: 0.497. For GGGAUUGAACCCUUGUUUUTT against BC049762, the z-score was inactive: 1.03. With CCUUCUUGACUAUUCGUCUTT against Olfr1509 the z-score was inactive: -0.58. In the case of GGUCCCUUUAUCUUUCUUUTT against Vwa7, the z-score is reported as inactive: -0.099. With GGCUAUUAAAGAUUUGAUGTT against Myef2 the z-score was inactive: -1.27. In the case of GCUCACUAAAUCCUUGAAATT against Trim31, the z-score is reported as inactive: -0.00166. For GCCAUAGAAGUAGAAGUAGTT against Rbmx2, the z-score was active: -2.29. With GCUCUAUUUGACCACCUCATT against Gdpd1 the z-score was inactive: -0.898. In the case of GGAAUUUAAGCUGUACACATT against Efcab9, the z-score is reported as inactive: -0.747. With GGGAAUUCUGAAAUCAUUCTT against Tmem117 the z-score was inactive: -0.169. For GGUUGUUGGAAAAGAUGAATT against Ids, the z-score was inactive: -1.55. In the case of GCUGUGAAUUCCAAAUGCGTT against Myh4, the z-score is reported as active: 3.33. For GCAAUAGGCAAUCUGGGAUTT against Olfr52, the z-score was inactive: 0.504. In the case of CCGGUACAAUUCCUGUGAUTT against Uevld, the z-score is reported as inactive: -1.37. With GGGAGCAUUUCCUUAUACUTT against Tpmt the z-score was inactive: 0.67. For GGGAUGAUUAGAAAAUUCUTT against Fam124b, the z-score was inactive: 0.89. With CCUCAUGUAGCAUUUUUCUTT against Pex11b the z-score was inactive: -0.41. In the case of GCCAGAUCUUAUCAUUAUUTT against Dnajc18, the z-score is reported as inactive: 0.684. In the case of CCAGAAAUCCCUAUAGAUGTT against Ambra1, the z-score is reported as inactive: -0.742. For GGACCACAGAAGUUCUCAUTT against Pira2, the z-score was active: -2.88. For CGACAAGAAGACUUCGAAUTT against Mnt, the z-score was inactive: -1.28. With GGCCAAUUUGAAUAAUCUATT against Zfp119a the z-score was inactive: -0.401. For CCAGGGACCCGUAAUUUAUTT against Fn3k, the z-score was inactive: 0.48. For GCUGAUGGAGAGUUAUUUGTT against Rcbtb1, the z-score was inactive: 0.675. In the case of GGAUGACCUUACCAGACACTT against Parp9, the z-score is reported as inactive: 0.252. In the case of CGUGUGUGAUUAAGUCUUATT against Bhlhe23, the z-score is reported as inactive: 0.167.
